PubChem BioAssay AID1259308 – NCATS – 2017

Test: 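Candidate targets for better recombinant protein yield in mammalian cells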 (primary screen)
System: human HEK293 embryonic kidney cells stably expressing firefly luciferase (HEK-CMV-Luc2-Hygro)
Reagents: single siRNA against human genes, 0.8 pmol siRNA per well
Duration: 72 h
Measured: 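Luciferase light (ONE-Glo) measured on one replicate plate set and viability (CellTiter-Glo) on the other, scaled to a negative control siRNA, with robust z-scores and luciferase per cell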
Scale: total luciferase, z-score and total luciferase, % of control: higher = more reporter protein produced
Hit rule: 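Active when the median/MAD z-score for overall luciferase is greater than 3; a gene was taken forward for validation with new siRNAs if at least two of its three siRNAs passed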
Calls: active = raised luciferase; inactive = no rise
This is an unselected part of about 59,000 reagents tested. About 1,510 of them (2.6%) count as active. 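Calls use total luciferase alone and ignore viability, so some active siRNAs may act by altering cell number.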 The numbers tell different reagents against one gene apart. Further read-outs or replicates are left out here.

Against WDR70 #1, the entry reads total luciferase, z-score 0.427; total luciferase, % of control 90.4; inactive.
Depletion of WDR70 #2 came out at: total luciferase, z-score 2.38; total luciferase, % of control 129; inactive.
WDR70 #3 gave total luciferase, z-score -0.0757; total luciferase, % of control 80.4; inactive.
For NKRF #1 the deposit lists total luciferase, z-score 1.44; total luciferase, % of control 110; inactive.
After knock-down of NKRF #2, the screen gave total luciferase, z-score -0.884; total luciferase, % of control 64.3; inactive.
After knock-down of NKRF #3, the record shows total luciferase, z-score 0.757; total luciferase, % of control 96.9; inactive.
For AAAS #1, the values are total luciferase, z-score 1.21; total luciferase, % of control 106; inactive.
Against AAAS #2, the values are total luciferase, z-score -0.12; total luciferase, % of control 79.5; inactive.
Against AAAS #3 the deposit lists total luciferase, z-score -0.242; total luciferase, % of control 77.1; inactive.
Depletion of ZNF250 #1 resulted in: total luciferase, z-score -0.924; total luciferase, % of control 63.5; inactive.
After knock-down of ZNF250 #2 the results were total luciferase, z-score -2.19; total luciferase, % of control 38.3; inactive.
With knock-down of ZNF250 #3 the results were total luciferase, z-score -0.183; total luciferase, % of control 78.2; inactive.
GSPT1 #1 scored total luciferase, z-score 0.0869; total luciferase, % of control 83.6; inactive.
Against GSPT1 #2, the entry reads total luciferase, z-score -0.728; total luciferase, % of control 67.4; inactive.
GSPT1 #3 scored total luciferase, z-score -1.98; total luciferase, % of control 42.4; inactive.
For HPX #1 the deposit lists total luciferase, z-score -1.88; total luciferase, % of control 44.5; inactive.
For HPX #2 the deposit lists total luciferase, z-score -0.698; total luciferase, % of control 68; inactive.
Depletion of HPX #3 came out at: total luciferase, z-score 0.298; total luciferase, % of control 87.8; inactive.
Silencing of PRRC2C #1 came out at: total luciferase, z-score 1.14; total luciferase, % of control 105; inactive.
PRRC2C #2 gave total luciferase, z-score 0.229; total luciferase, % of control 86.4; inactive.
After knock-down of PRRC2C #3 the results were total luciferase, z-score -0.382; total luciferase, % of control 74.3; inactive.

A portion of the results above, as a working copy:
GSPT1 #1: total luciferase, z-score = 0.0869; total luciferase, % of control = 83.6; activity call = inactive
GSPT1 #2: total luciferase, z-score = -0.728; total luciferase, % of control = 67.4; activity call = inactive
GSPT1 #3: total luciferase, z-score = -1.98; total luciferase, % of control = 42.4; activity call = inactive

The list goes on:
Knock-down of OSGEPL1 #1 came out at: total luciferase, z-score 0.946; total luciferase, % of control 101; inactive.
Against OSGEPL1 #2 the deposit lists total luciferase, z-score -1.96; total luciferase, % of control 42.9; inactive.
OSGEPL1 #3 showed total luciferase, z-score 0.588; total luciferase, % of control 93.6; inactive.
For SVIP #1, the entry reads total luciferase, z-score -0.998; total luciferase, % of control 62; inactive.
Knock-down of SVIP #2 gave: total luciferase, z-score -0.288; total luciferase, % of control 76.2; inactive.
After knock-down of SVIP #3 the results were total luciferase, z-score 2.56; total luciferase, % of control 133; inactive.
Silencing of HAS2 #1 resulted in: total luciferase, z-score 0.466; total luciferase, % of control 91.1; inactive.
After knock-down of HAS2 #2 the results were total luciferase, z-score -0.565; total luciferase, % of control 70.7; inactive.
For HAS2 #3, the values are total luciferase, z-score 0.364; total luciferase, % of control 89.1; inactive.
RAD54L2 #1 gave total luciferase, z-score 2.84; total luciferase, % of control 138; inactive.
With knock-down of RAD54L2 #2, the screen gave total luciferase, z-score 0.293; total luciferase, % of control 87.7; inactive.
Against RAD54L2 #3 the deposit lists total luciferase, z-score -0.51; total luciferase, % of control 71.7; inactive.
